Hit rate of the full screen: of about 300,000 compounds, about 5,400 (1.8%) were called active. The shares of active, inactive and inconclusive entries below differ from those in the screen. The call rests on the fitted dose curve; tested in HEK293 cells. A potency beside an inconclusive call is a rough fit, not a confirmed value.
Test: qHTS for inhibitors of binding or entry into cells for Marburg Virus
Conditions: Marburg virus pseudotyped entry inhibition, cell reporter; activity change, negative = inhibition: at 37.8 µM (top of the series) unless noted
On the % scale 0 is the no-effect control and ±100 the full control effect; potency means the concentration at half of the fitted maximal effect.

Compound | Potency | activity change, negative = inhibition
COc1ccc(CCNC(=O)c2cc(S(=O)(=O)N3CCC4(CC3)OCCO4)ccc2F)cc1OC | inconclusive: 0.891 µM [inhibitor, full curve, poor fit] | –
CCn1nc(C)c(CNC(=O)c2cc(COc3ccccc3SC)on2)c1C | – | inactive: 26.9% [at 46.1 µM]
O=C(O)/C=C/c1ccc(O)c(O)c1 | inconclusive: 18.4 µM [inhibitor, single point] | –
N#Cc1c(NC(=S)NC(=O)c2ccccc2)sc2c1CCC2 | inconclusive: 3.55 µM [activator, single point] | –
CC(=O)N(C(C)=O)c1cccc(N(Cc2ccccc2)Cc2ccccc2)c1 | inconclusive: 11.2 µM [inhibitor, partial curve, poor fit] | –
O=C(Cc1cn(-c2ccccc2)nc1-c1ccccc1)N1CCCCC1 | inconclusive: 31.6 µM [inhibitor, partial curve, poor fit] | –
Cc1ccc(C(=O)NC(Cc2c[nH]c3ccccc23)C(=O)O)cc1 (stereo not given) | – | inactive: 4%
COc1cccc(-c2nn(-c3ccccc3)cc2CN(C)C(C)c2ccncn2)c1 (stereo not given) | inconclusive: 35.5 µM [inhibitor, single point] | –
CS(=O)(=O)N1CCN(C(=O)c2ccc(F)cc2)CC1 | – | inactive: 14.1%
CCOc1ccc(C(=O)NCc2ccccc2OC)cc1 | – | inactive: 28%
COc1ccccc1/C=C1\SC(=O)N(CC(=O)NCCCn2ccnc2)C1=O | – | inactive: 6.63% [at 46.1 µM]
O=c1cccc(-c2ccccc2)[nH]1 | inconclusive: 1.3 µM [activator, partial curve, poor fit] | –
COc1ccc(-c2nnc(SCC(=O)Nc3ncc(C)s3)n2-c2ccccc2)cc1OC | inconclusive: 5.17 µM [inhibitor, partial curve] | –
CC1Cc2ccccc2N1CC(=O)NC(=O)NCc1ccco1 (stereo not given) | inconclusive: 32.6 µM [inhibitor, single point] | –
O=C(O)C1CCCC2CN3CCc4c([nH]c5ccccc45)C3C(O)C21 (stereo not given) | – | inactive: 25.1% [at 46.1 µM]
COc1ccc(CC(=O)N2CCN(c3ccccn3)CC2)cc1 | – | inactive: 11.2% [at 46.1 µM]
CCc1ccc(/C=N/NC(=O)c2cc(C3CC3)nc3ccc(Br)cc23)s1 | inconclusive: 7.94 µM [inhibitor, partial curve, poor fit] | –
COC(=O)c1c(NC(=O)C2c3ccccc3Oc3ccccc32)sc(C)c1C | – | inactive: 5.06%
CN(C)c1cc2c3ccccc3n(C)c2cc1N | inconclusive: 0.794 µM [inhibitor, single point] | –
COc1ccc(/C=C2\CCn3c2nc2cc(C(=O)O)ccc2c3=O)cc1O | inconclusive: 0.501 µM [activator, single point] | –
Cc1ccc(Cl)cc1NC(=S)N(CCCN1CCN(C)CC1)Cc1cccs1 | inconclusive: 14.1 µM [inhibitor, single point] | –
COc1ccc(NC(=O)COc2nc(N(C)C)nc(N(C)C)n2)cc1 | inconclusive: 1 µM [inhibitor, single point] | –
O=C(N/N=C/C(Cl)=C/c1ccccc1)c1ccccc1F | inconclusive: 2.82 µM [activator, partial curve, poor fit] | –

3 of these compounds in another layout.
Compound,Potency,"activity change, negative = inhibition"
COc1cccc(-c2nn(-c3ccccc3)cc2CN(C)C(C)c2ccncn2)c1 (stereo not given),"inconclusive: 35.5 µM [inhibitor, single point]",–
CS(=O)(=O)N1CCN(C(=O)c2ccc(F)cc2)CC1,–,inactive: 14.1%
CCOc1ccc(C(=O)NCc2ccccc2OC)cc1,–,inactive: 28%

Following part:

Compound | Potency | activity change, negative = inhibition
Fc1cccc(Cl)c1CN1CCN(c2nc3ccccc3s2)CC1 | inconclusive: 5.62 µM [activator, single point] | –
COc1ccc(-c2cc(C(F)(F)F)n3ncc(C(=O)N(C)Cc4ccccc4)c3n2)cc1 | inconclusive: 14.1 µM [inhibitor, partial curve, poor fit] | –
Cc1cccc2cc(CN(Cc3ccco3)C(=O)c3cccs3)c(=O)[nH]c12 | – | inactive: -8.02%
CC1CN(CCCOc2ccccc2[N+](=O)[O-])CC(C)O1 (stereo not given) | inconclusive: 32.6 µM [activator, partial curve, poor fit] | –
CCOc1cc([C@@H]2C[C@H]3CN(c4ccccc4)C(=O)[C@]34CCCN24)ccc1OC | inconclusive: 5.62 µM [inhibitor, partial curve] | –
NC(=O)c1nsc(C(=O)N(c2ccccc2)C(C(=O)NC2CCCC2)c2cccs2)c1N (stereo not given) | inconclusive: 35.5 µM [activator, single point] | –
Cc1cc(N2CCN(c3cccc(C(F)(F)F)c3)CC2)n2nc(C)nc2n1 | inconclusive: 5.62 µM [activator, single point] | –
O=C1CCN(c2ncccc2[N+](=O)[O-])CC1 | – | inactive: 10.1% [at 46.1 µM]
O=C(Nc1nc(-c2ccccc2)cs1)C1CCCN(S(=O)(=O)c2ccccc2)C1 (stereo not given) | active: 8.2 µM | –
CS(=O)(=O)c1ncc(Cl)c(C(=O)N2CCN(c3cccc(Cl)c3)CC2)n1 | inconclusive: 7.08 µM [inhibitor, full curve, poor fit] | –
CCOc1ncccc1C(=O)OCC(=O)NCCCc1ccccc1 | inconclusive: 12.6 µM [activator, partial curve, poor fit] | –
COc1ccc(CNC(=O)Nc2cccc(Cl)c2)cc1 | – | inactive: 5.39% [at 46.1 µM]
Cc1nc(Cl)sc1C(=O)Nc1cc(F)cc(F)c1 | inconclusive: 35.5 µM [inhibitor, single point] | –
Cc1ccc(-c2oc3ccccc3c(=O)c2OCC(=O)O)cc1 | – | inactive: -5.82%
Cc1cccc(NC(=S)NC2CC3CCCC(C2)N3CC(C)C)c1 (stereo not given) | inconclusive: 0.0461 µM [inhibitor, full curve, poor fit] | –
Cc1ccc(-c2oc3ncnc(N)c3c2-c2ccc(C)cc2)cc1 | inactive | –
CCc1ccc(OCC(=O)NC(NC(=S)Nc2ccc(C)cc2C)C(Cl)(Cl)Cl)cc1 (stereo not given) | inconclusive: 35.5 µM [inhibitor, single point] | –
COc1ccc(S(=O)(=O)N2CCCCC2)cc1C(=O)N1CCCC1 | – | inactive: 13%
CCOC(=O)c1c(-c2ccccc2)csc1NC(=S)N(CC)CC | inconclusive: 0.501 µM [inhibitor, full curve, poor fit] | –
CCOc1ccc(N2C(N)=NC(N)=NC2(C)C)cc1 | inconclusive: 2.51 µM [activator, single point] | –
COc1ccccc1C(c1nnnn1CS(=O)(=O)c1ccc(C)cc1)N1CCSCC1 (stereo not given) | inconclusive: 10.3 µM [inhibitor, partial curve, poor fit] | –
COc1cc(OC)cc(C(=O)N(CN2CCCC2=O)c2ccccc2OC)c1 | – | inactive: -45.6%
